A number of entries come with more than one value. This list holds those alone. An entry can have further records. Results that share an entry differ, and nothing given here explains why; some may be repeats, others may stem from another dose, organism or construct than stated.
Biological target: CatG (Homo sapiens, UniProt P08311)
Experiment: Fluorogenic substrate hydrolysis kinetics with CatG
Assay type: biochemical
Details: Table 2; hydrolysis by CatG; enzyme could not be saturated, so no separate kcat and Km; listed as Ac-hCha-Phe(guan)-Oic-Arg-ACC
Experimental: Kinetic parameters of selected substrates were determined in 50 mM Hepes, 0.1 M NaCl, 0.1%TRITON-X100, pH 7.45 assay buffer on 96 wells Corning plates. Measurements were performed for a minimum of 20 minutes. The excitation wavelength was 355 nm, and the emission wavelength was 460 nm, with a cutoff of 455 nm. Human NE and CatG were purchased from Biocentrum, Krakow, Poland and PR3 from Athens Research Technology, Athens, Georgia, USA. Recombinant human NSP4 was expressed and purified as previously described.
In addition to NSP4, neutrophils contain three other structurally-related serine proteases NE, PR3 and CatG [1] that are also stored in azurophilic granules. To estimate the degree of eventual cross reactivity of the optimal substrate with these three serine proteases, we measured kinetic parameters for each enzyme on PK421. […] In the case of CatG we were unable to saturate the enzyme and therefore could not calculate the individual values of kcat and Km. Lack of measurable activity toward PR3 and NE made this sequence an ideal candidate for the design of an activity based probe.

The chains behind the UniProt entries cited, without tags or fusion partners. Residues count along the entry.
UniProt P08311, 21-255 limits assumed: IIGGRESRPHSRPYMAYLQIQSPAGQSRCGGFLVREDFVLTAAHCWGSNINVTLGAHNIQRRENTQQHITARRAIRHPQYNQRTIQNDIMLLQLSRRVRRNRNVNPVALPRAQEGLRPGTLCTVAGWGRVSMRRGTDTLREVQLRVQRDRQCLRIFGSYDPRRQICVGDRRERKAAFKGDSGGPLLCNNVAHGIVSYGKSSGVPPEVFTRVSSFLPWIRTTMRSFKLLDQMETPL

**Q.** With `CC(=O)N[C@@H](CCC1CCCCC1)C(=O)N[C@@H](Cc1ccc(NC(=N)N)cc1)C(=O)N1C2CCCCC2C[C@H]1C(=O)N[C@@H](CCCNC(=N)N)C(=O)Nc1ccc2c(CC(N)=O)cc(=O)oc2c1` (stereo partly shown) as the compound, how does the kcat/Km read?
**A.** only very weakly hydrolyzed and 477±0.9 M^-1s^-1

From PMC4501687, “Design of a Selective Substrate and Activity Based Probe for Human Neutrophil Serine Protease 4” (PLoS ONE, 2015)
